## Library screen at single concentrations

Measurements from “University of Dundee, Small-Polar-MMV Screening Library” (2021), ChEMBL document CHEMBL3988442.

Each number is a percent effect as filed.
How 0% and 100% were set is not recorded. Most values in the screen are low, and negative values occur.
This is an unselected part of the compounds tested.
Two or more numbers in one place are separate tests of the same structure; such repeats can differ widely.

T. brucei: 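Whole-parasite assay of Trypanosoma brucei over 72 hours; the read-out is not stated. Compounds at 30 µM. Direction is inferred from retests: higher values go with stronger inhibition. Values scatter widely below zero; nearly all retest evidence comes from the higher of the two concentrations used. Of about 64,000 compounds tested this way, about 940 (1.5%) reached 50% or more in at least one test.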
Leishmania in macrophages: 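Cell assay of Leishmania donovani living inside macrophages; the read-out is not stated. Tested at 30 µM. The record gives no direction; compounds that gave an IC50 in retests scored well above the rest, so higher reads as stronger inhibition. About 69,000 compounds were tested under these conditions; 1.5% (about 1,000) showed 50% or more at least once.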
Toxoplasma: 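Assay of Toxoplasma gondii numbers, read through their beta-galactosidase reporter with a colour substrate. Compounds at 10 µM. Higher reads as fewer parasites (inferred from which compounds were picked for retests). Of about 67,000 compounds tested this way, about 260 (0.38%) reached 50% or more in at least one test.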

For NC(=O)c1ccc(N2CCN(Cc3cccc4nsnc34)CC2)nc1 the result was T. brucei: -30.74%; Leishmania in macrophages: 19.44%; Toxoplasma: 8.306%. CC(=O)c1cccc(OCc2cc(C(=O)N3CCCCO3)n[nH]2)c1 gave T. brucei: -16.71%; Leishmania in macrophages: 9.051% and 0.9683%; Toxoplasma: 6.113%. COc1cc2nc(C)n(CC(=O)NCCC(C)C)c(=O)c2cc1OC read T. brucei: -30.04%; Leishmania in macrophages: -10.54% and 8.614%; Toxoplasma: 10.77%. Result for c1cnc(NCc2noc3c2CN(C2CCOCC2)CC3)nc1 was T. brucei: 11.67%; Leishmania in macrophages: 30.09%; Toxoplasma: -2.778%. For [H][C@@]12CCC(=O)N(CCc3ccccc3)[C@]1([H])CCN(c1ncc(F)cn1)C2 the result was T. brucei: -13.29%; Leishmania in macrophages: -26.42%; Toxoplasma: -5.055%.

For Cc1ccc(OCC(=O)N(C)Cc2cccc(F)c2)cn1 the result was T. brucei: 15.42%; Leishmania in macrophages: 34.51%; Toxoplasma: 3.583%. CCC(C)N(Cc1ccsc1)C(=O)c1ccc(CO)cc1 (stereo not drawn) read T. brucei: -17.93%; Leishmania in macrophages: 10.17%; Toxoplasma: -3.267%. Result for CCNC(=O)Nc1ncc(-c2cccnc2)s1 was T. brucei: 21.75%; Leishmania in macrophages: -13.61%; Toxoplasma: -7.394%. O=C(NCCc1nccs1)[C@H](c1ccccc1)n1cnnn1 gave T. brucei: -0.2708%; Leishmania in macrophages: 10.58%; Toxoplasma: 14.26%. Result for Cc1nsc(NC(=O)NC2CCOCC2)n1 was T. brucei: -38.98%; Leishmania in macrophages: -4.393%; Toxoplasma: -6.89%.

CC1(C(=O)N2CCN(C3CCCC3)CC2)CNCCO1 (stereo not drawn) read T. brucei: -15.76%; Leishmania in macrophages: 6.465%; Toxoplasma: -1.109%. With CCn1ccnc1CN1CCN(CC(=O)NC(C2CC2)C2CC2)CC1 the screen gave Leishmania in macrophages: 3.211%; Toxoplasma: -3.621%. For CC(C)c1ncncc1C(=O)N1CCCN(Cc2ccccc2)CC1 the result was T. brucei: 18.57%; Leishmania in macrophages: 32.38%; Toxoplasma: -2.204%. For Cn1cc(S(=O)(=O)N2CCC(OCCCc3ccccc3)C2)cn1 (stereo not drawn) the result was T. brucei: -52.74%; Leishmania in macrophages: -25.44%; Toxoplasma: 0.1894%. Result for Cc1nn(C)c2ncc(CN3CCCCCC3)cc12 was T. brucei: -13.41%; Leishmania in macrophages: 33.02%; Toxoplasma: 16.34%.

Result for O=C(O)C(F)(F)F.[H][C@]12C[C@@H](C(=O)NC)CO[C@@]1([H])CCN(c1ncc(F)cn1)C2 was T. brucei: -4.888%; Leishmania in macrophages: 7.268%; Toxoplasma: 9.297%. Cl.Clc1ccccc1CN1CCc2nc(C3CCCCN3)ncc2C1 (stereo not drawn) read T. brucei: 7.797%; Leishmania in macrophages: 29.12%; Toxoplasma: 2.94%. Result for CC(C)CC1(C(=O)NCc2nncn2C2CC2)CCC1 was T. brucei: -62.9%; Leishmania in macrophages: 20.25%; Toxoplasma: -1.831%. Cc1cccc(-c2nccn2C2CC(=O)N(C(C)C)C2)n1 (stereo not drawn) read T. brucei: -15.05%; Leishmania in macrophages: -13.05%; Toxoplasma: 6.011%. Cc1cccc(NC2CCN(C(=O)Nc3ccncc3)CC2)n1 read T. brucei: -8.494%; Leishmania in macrophages: 18.13%; Toxoplasma: -23.49%.

Result for CC(C)C[C@H](NCc1cc(O)c2cccc(F)c2n1)C(N)=O was T. brucei: 11.69%; Leishmania in macrophages: 19.95%; Toxoplasma: 0.918%. Result for CCCN1CCN(C(=O)CCn2nc(C(F)(F)F)c(Br)c2C)CC1 was T. brucei: -8.655%; Leishmania in macrophages: 32.57%; Toxoplasma: 2.723%. CN(C)S(=O)(=O)c1cccc(NC(=O)Cc2ccon2)c1 gave T. brucei: -37.11%; Leishmania in macrophages: -20.85%; Toxoplasma: 1.731%. Cc1csc(C2(NCc3nc(-c4ccco4)no3)CCCC2)n1 read T. brucei: 17.53%; Leishmania in macrophages: 17.55%; Toxoplasma: 2.641%.

Some entries from above, unchanged:

Cc1nn(C)c2ncc(CN3CCCCCC3)cc12 read T. brucei: -13.41%; Leishmania in macrophages: 33.02%; Toxoplasma: 16.34%.
COc1cc2nc(C)n(CC(=O)NCCC(C)C)c(=O)c2cc1OC read T. brucei: -30.04%; Leishmania in macrophages: -10.54% and 8.614%; Toxoplasma: 10.77%.
Cc1ccc(OCC(=O)N(C)Cc2cccc(F)c2)cn1 read T. brucei: 15.42%; Leishmania in macrophages: 34.51%; Toxoplasma: 3.583%.